The experiment in a line: T. gondii intracellular growth, IFN-gamma absent, dose response, cell-based (AID 1259420).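 Note: host cells were HeLa; final incubation lasted 72 hours.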 The following applies: Toxoplasma gondii growth in host cells, no IFN-gamma.

In all, about 1,000 compounds went through this assay and about 250 (25%) were called active. Inconclusive results (about 31%) are left out. The rule behind the calls is not given here. Only a part is listed here, and it is no random draw. Potency and affinity values are given separately.

For `COCCN1CC[C@@H]2C[C@H](C(=O)Nc3cccnc3)O[C@@H]2C1`, where the note is “at 19.5 µM unless noted”, the max activity was inactive: 6.74% [at 0.16 µM].
With `CC[C@H]1CN2CCC1C[C@@H]2[C@@H](O)c1ccnc2ccc(OC)cc12` (stereo partly specified), the max activity (at 19.5 µM unless noted) is inactive: 6.76% [at 2.6 µM].
Turning to `c1cncc(CN2C[C@@H]3COC[C@@]3(Cc3nnc(C4CC4)o3)C2)c1`, the max activity (at 19.5 µM unless noted) was inactive: -15% [at 10 µM].
Take `C=CCOC1C2CCC1N(Cc1cccc(C)n1)CCO2` (stereo unspecified): the max activity (at 19.5 µM unless noted) is inactive: 11.2%.
On to `CCCN(CCC)C1CCc2ccc(O)cc2C1` (stereo unspecified), for which, for the setting “at 19.5 µM unless noted”, the max activity was inactive: 9.56% [at 0.16 µM].
Turning to `Cn1cccc1CN1CC2(CCN(c3ncccn3)C2)C1`, the max activity (at 19.5 µM unless noted) was inactive: 12% [at 1.2 µM].
As for `C/C=C/c1ccc(C2[C@@H]3CN(C(=O)C4CCC4)C[C@H]2N3)cc1` (stereo partly specified), the max activity was inactive: -25% (at 0.075 µM) and inactive: -11.6% (at 0.15 µM).
Turning to `Cn1cc(C(=O)C(=O)N[C@H]2CN3CCC2CC3)c2ccccc21`, where the note is “at 19.5 µM unless noted”, the max activity was inactive: 12.4% [at 0.038 µM].
Turning to `Cc1cccc(CN2CC[C@H]3[C@@H]2CCN3C(=O)NC2CCCC2)n1`, the max activity (at 19.5 µM unless noted) is inactive: 12.8% [at 0.16 µM].
Regarding `O=C(c1ccnnc1)N1C[C@H]2CN(Cc3cccc(F)c3)C[C@H]2C1`, the max activity (at 19.5 µM unless noted) is inactive: 10.3%.
Regarding `c1cnc(N2CCO[C@H]3CN(Cc4cccs4)C[C@@H]32)nc1`, the max activity (at 19.5 µM unless noted) was inactive: 12.2% [at 2.6 µM].
Regarding `CCOc1ccccc1-n1c(C(C)N2CCN(C(=O)COc3ccc(Cl)cc3)CC2)nc2ccccc2c1=O` (stereo unspecified), under “at 19.5 µM unless noted”, the max activity is inactive: -4.16% [at 0.08 µM].
Turning to `CCO[C@H]1CC[C@@H]2[C@H]1OCCN2Cc1cc(C)on1`, the max activity (at 19.5 µM unless noted) is inactive: -17.1% [at 2.6 µM].
Consider `COc1ncccc1CN1CC[C@@H]2C[C@H](c3n[nH]c(C)n3)O[C@H]2C1`, for which, under “at 19.5 µM unless noted”, the max activity was inactive: -11.3% [at 0.16 µM].
Take `Cn1cc(C(=O)N2CC3(CCN(Cc4cccnc4)C3)C2)cn1`: the max activity (at 19.5 µM unless noted) is inactive: -19.2% [at 0.3 µM].
For the compound `CC[N+]1(C)CCCC(OC(=O)C(O)(c2ccccc2)c2ccccc2)C1` (stereo unspecified), the max activity (at 19.5 µM unless noted) was inactive: 9.65%.
`C[C@]12CC[C@@H](O)C[C@@H]1CC[C@@H]1[C@@H]2CC[C@]2(C)[C@@H](C(=O)CO)CC[C@@H]12`: under “at 19.5 µM unless noted”, the max activity was inactive: -10.4%.
For `COc1ccc2c(c1)C1(CCN(C(=O)c3ccc(N(C)C)c4ccccc34)CC1)CC2CC(=O)O` (stereo unspecified), the max activity (at 19.5 µM unless noted) was inactive: -19.7% [at 10 µM].
`Cc1ncsc1CCCl`: the max activity (at 19.5 µM unless noted) was inactive: 10.2%.
Take `O=C(c1cccnc1)N1CCC2(CN(Cc3ccsc3)C2)C1`: for the setting “at 19.5 µM unless noted”, the max activity is inactive: -10.6% [at 10 µM].

(Values after PubChem BioAssay AID1259420 (Broad Institute, 2018).)
